# Some of the results follow. Shown are side measurements of this screen, not its main read-out; they come without a call. The list favours compounds with an active or inconclusive main result. Potencies come from curve fits of mixed quality, noted in brackets.
# Assay: IkB Signaling
# Conditions: ABC-DLBCL IkBa-CBG/CBR dual luciferase ratio (green luciferase fused to IkBa over red control in OCI-Ly3 lymphoma cells), 4 h
# Method in brief: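 In this assay, an IκBα–CBG68 fusion accumulates when IKK-driven degradation is blocked; native CBR normalizes for cell number. OCI-Ly3 cells were treated 4 h with compound and doxycycline, then green and red light read after Chroma-Glo addition.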
# [1] = measured here: control luc red channel unless noted
smiles,measurement,setting,value
COc1ccc(CNC(=O)c2ccc(NC(=O)N3CCSc4ncccc43)cc2)c(OC)c1,AC50,[1],"12.6 µM [falling, single point]"
CCOc1ccc2oc(=O)cc(CN3CCN(C(=O)c4cccc(Cl)c4)CC3)c2c1,AC50,[1],"20 µM [falling, single point]"
CC(=O)[C@@]1(O)CC[C@@H]2[C@@H]3CCC4=CC(=O)CC[C@@]4(C)[C@H]3CC[C@]21C,AC50,[1],"1.26 µM [rising, full curve, poor fit] [measured here: IkB-luc green channel]"
Cc1ccc(-n2nc(-c3cccs3)cc2C(=O)NCC2CCCO2)c(C)c1 (configuration not stated),AC50,[1],"25.1 µM [falling, single point]"
N#Cc1nc(COc2ccc(-c3ccccc3)cc2)oc1NCc1cccnc1,AC50,[1],"10 µM [falling, partial curve]"
COC(=O)c1ccccc1NC(=O)c1sc2nc(C)cc(C)c2c1NC(=O)c1ccccc1Cl,AC50,[1],"0.1 µM [rising, full curve]"
COc1ccc(NC(=O)c2cc(C(C)=O)n3ccccc23)cc1Cl,AC50,measured here: IkB-luc green channel,"5.01 µM [rising, partial curve]"
same,AC50,measured here: control luc red channel,"15.8 µM [falling, partial curve]"
COc1ccc(NC(=O)c2ncoc2-c2ccco2)cc1Cl,AC50,[1],"0.631 µM [rising, full curve, poor fit]"
CCOC(=O)c1cccc(NC(=O)C2CCN(S(=O)(=O)c3c(C)noc3/C=C/c3ccc(C)cc3)CC2)c1,AC50,[1],"3.16 µM [falling, full curve]"
O=C(Cc1ccccc1)Nc1sc2c(c1C(=O)Nc1ccccc1Cl)CCCC2,AC50,[1],"25.1 µM [falling, single point]"
COc1ccc(CNC(=O)Cn2ccc3cc(S(=O)(=O)N4CCCC4)ccc32)c(OC)c1,AC50,[1],"12.6 µM [falling, partial curve]"
COc1ccc(OC)c(-c2nnc3n(CCc4ccccc4)c(=O)c4ccccc4n23)c1,AC50,[1],"12.6 µM [falling, partial curve]"
O=C(O)CCc1ccc(-c2ccccc2)o1,AC50,[1],"31.6 µM [rising, partial curve] [measured here: IkB-luc green channel]"
Cc1ccc2oc(=O)c3cc(C(=O)NCc4ccc(Cl)cc4)sc3c2c1,AC50,[1],"39.8 µM [rising, single point]"
O=C(NC1CCCC1)C(c1ccc(O)cc1)N(CC1CCCO1)C(=O)C1COc2ccccc2O1 (configuration not stated),AC50,[1],"12.6 µM [falling, partial curve]"
COc1ccc(CCNc2oc(COc3ccc(F)cc3)nc2C#N)cc1,AC50,[1],"31.6 µM [falling, partial curve]"
COc1ccc(-c2csc3nc(-c4ccc(F)cc4)oc(=O)c23)cc1OC,AC50,[1],"1 µM [falling, full curve, poor fit]"
Cc1ccc(C(=O)OCC(=O)Nc2sc3c(c2C#N)CCCCC3)cc1NC(=O)c1ccco1,AC50,[1],"7.94 µM [falling, partial curve]"
Cc1ccc(-c2noc(CSc3nnc(C)n3-c3ccc(F)cc3)n2)cc1,AC50,[1],"25.1 µM [falling, partial curve]"
CCOc1cccc(NC(=O)C2CC(=O)N(C)C(=Nc3cccc(F)c3)S2)c1 (configuration not stated),AC50,[1],"12.6 µM [falling, partial curve]"
O=C(NCc1ccccc1F)c1cc2ccccn2n1,AC50,[1],"39.8 µM [falling, single point]"
O=C(CSc1nnnn1-c1ccc2c(c1)OCCO2)c1cccc2c1OCCO2,AC50,[1],"39.8 µM [falling, single point]"
COc1ccc(Cl)cc1NC(=O)c1noc2c1CCc1ccccc1-2,AC50,[1],"20 µM [falling, partial curve, poor fit]"
O=C(NC1CCCCC1)C(c1ccncc1)N(C(=O)Cn1nnc(-c2cccs2)n1)C1CCCC1 (configuration not stated),AC50,[1],"20 µM [falling, partial curve]"
COc1ccc2nc(NC(=O)c3nc(S(=O)(=O)Cc4ccc(C)cc4)ncc3Cl)sc2c1,AC50,[1],"12.6 µM [falling, partial curve]"
CCOc1ccccc1NC(=O)CN(c1cc(C)cc(C)c1)S(=O)(=O)c1c(C)nn(C)c1C,AC50,[1],"15.8 µM [falling, partial curve]"
Cc1ccc(NC(=O)c2cc(NC(=O)c3ccco3)ccc2N2CCOCC2)cc1,AC50,[1],"0.1 µM [falling, full curve]"
CCOc1ccc2nc(Cl)c(C3CC(c4ccccc4)=NN3C(=O)CCC(=O)O)cc2c1 (configuration not stated),AC50,[1],"10 µM [falling, partial curve, poor fit]"
Cc1ccc(Nc2nc(CSc3nnnn3-c3ccccc3)cs2)cc1,AC50,[1],"6.31 µM [falling, partial curve]"
Cc1ccc(-c2nnc(Nc3ccc(O)cc3)c3ccccc23)cc1S(=O)(=O)NC(C)(C)CO,AC50,[1],"15.8 µM [falling, partial curve]"
CCOc1ccc(S(=O)(=O)N(CC(=O)Nc2ccc(OC)c(Cl)c2)c2ccccc2)cc1,AC50,[1],"0.158 µM [falling, full curve, poor fit]"
COCCNC(=O)c1ccccc1NC(=O)C1COc2ccccc2O1 (configuration not stated),AC50,[1],"2 µM [rising, partial curve]"
CCOc1cc(C(=O)Nc2ccc3nc(N4CCN(C)CC4)cc(C)c3c2)cc(OCC)c1OCC,AC50,[1],"3.98 µM [falling, full curve]"
CCOc1ccccc1NC(=O)c1ccccc1-c1nc(-c2ccccc2OC)no1,AC50,[1],"1.58 µM [falling, full curve]"
COc1ccc(S(=O)(=O)N(CC(=O)Nc2ccc(C)cc2)c2ccc(C)cc2)cc1OC,AC50,[1],"1.58 µM [rising, partial curve]"
Cc1oc2ncnc(N3CCCCC3)c2c1C(=O)N1CCN(c2ccc(Cl)cc2)CC1,AC50,[1],"0.01 µM [falling, full curve, poor fit]"
CCOC(=O)c1ccccc1NC(=O)CSc1cn(CC(=O)N2CCCCCC2)c2ccccc12,AC50,[1],"12.6 µM [falling, partial curve]"
COc1ccc(NC(=O)c2ccco2)cc1NC(=O)c1cc(Br)ccc1Cl,AC50,[1],"3.98 µM [rising, single point]"
COc1ccc(-c2nc3c4ccccc4n(CC(=O)N4CCN(c5ccccc5F)CC4)c(=O)n3n2)cc1,AC50,[1],"3.98 µM [rising, partial curve]"
O=C(NC1C=CS(=O)(=O)C1)c1sc2ccccc2c1Cl (configuration not stated),AC50,[1],"12.6 µM [falling, partial curve]"
CN(C)c1ccc(C2=NOC(CN3C(=O)c4ccccc4S3(=O)=O)C2)cc1 (configuration not stated),AC50,[1],"6.31 µM [falling, partial curve]"
CCc1ccc(NC(=O)CCCc2nnc3n(C(C)CC)c(=O)c4sccc4n23)cc1 (configuration not stated),AC50,[1],"31.6 µM [falling, single point]"
Cc1ccc(Cl)cc1N1CCN(C(=O)COc2cc(=O)n(C)c3ccccc23)CC1,AC50,[1],"31.6 µM [falling, partial curve]"
CC(=O)N1CCc2c(sc3c2c(=O)n(Cc2ccccc2)c(=O)n3Cc2ccccc2Cl)C1,AC50,[1],"39.8 µM [falling, single point]"
COc1cc(-c2nc(-c3ccccc3)c(-c3ccc(Br)cc3)[nH]2)cc(OC)c1O,AC50,[1],"12.6 µM [falling, partial curve]"
CN(Cc1ccco1)c1ncnc2ccc(-c3ccoc3)cc12,AC50,[1],"5.01 µM [falling, partial curve]"
COc1ccc(NC(=O)C2CCN(c3ccc(Sc4ccc(C)cc4)nn3)CC2)cc1,AC50,[1],"0.00631 µM [falling, full curve, poor fit]"
CCCCCn1c(CN(C)Cc2ccccc2)nc2c1c(=O)n(C)c(=O)n2C,AC50,[1],"31.6 µM [falling, partial curve]"
CC1CN(C(=O)N2CCC(C(=O)NCc3cccs3)CC2)c2ccccc2O1 (configuration not stated),AC50,[1],"0.0251 µM [falling, full curve]"
COc1ccc(Nc2oc(/C=C/c3cc(OC)c(OC)c(OC)c3)nc2C#N)cc1,AC50,[1],"7.94 µM [falling, partial curve]"
COc1cccc(CNC(=O)Cn2c(=O)nc(-c3ccccc3F)c3cc(Cl)ccc32)c1,AC50,[1],"15.8 µM [falling, partial curve]"
Cc1sc2ncn(CC(=O)N3CCN(c4cccc(Cl)c4)CC3)c(=O)c2c1S(=O)(=O)N1CCC(C)CC1,AC50,[1],"10 µM [falling, partial curve]"
COC(=O)c1ccc(NC(=O)CN(C)S(=O)(=O)c2ccc3c(c2)CCCC(=O)N3)cc1,AC50,[1],"39.8 µM [falling, single point]"
COc1cc(C)ccc1OCCSc1nc2ccc(NC(=O)c3ccccc3F)cc2s1,AC50,[1],"5.01 µM [falling, partial curve]"
COC(=O)c1cc(NC(=O)Cn2nc(-c3ccccc3)c3c(c2=O)CCCC3)cc(C(=O)OC)c1,AC50,[1],"15.8 µM [falling, partial curve]"
O=C(Nc1nsc(-c2ccccc2)n1)c1cccs1,AC50,[1],"1.58 µM [falling, full curve]"
COc1ccc2cc3cc(C(=O)NCCN4CCc5ccccc5C4)oc3nc2c1,AC50,[1],"10 µM [falling, partial curve]"
CCc1ccc(-c2cc(C)no2)cc1S(=O)(=O)NCc1ccc(OC)cc1,AC50,[1],"6.31 µM [rising, full curve]"
Cc1ccc(-n2nc3c([n+]2[O-])CCc2c-3no[n+]2[O-])cc1,AC50,[1],"31.6 µM [falling, single point]"
CCOC(=O)c1cnc(Nc2nc3ccccc3o2)nc1CN1CCN(c2ccccc2)CC1,AC50,[1],"3.98 µM [falling, full curve]"
Cc1ccc(NS(=O)(=O)c2ccc3[nH]c4c(c3c2)CCCCCC4)cc1C,AC50,[1],"25.1 µM [falling, single point]"

# Shown tab-delimited: part of the list above.
smiles	measurement	setting	value
COc1ccc(NC(=O)c2cc(C(C)=O)n3ccccc23)cc1Cl	AC50	measured here: IkB-luc green channel	5.01 µM [rising, partial curve]
Cc1ccc2oc(=O)c3cc(C(=O)NCc4ccc(Cl)cc4)sc3c2c1	AC50	[1]	39.8 µM [rising, single point]
CCCCCn1c(CN(C)Cc2ccccc2)nc2c1c(=O)n(C)c(=O)n2C	AC50	[1]	31.6 µM [falling, partial curve]
Cc1ccc(NS(=O)(=O)c2ccc3[nH]c4c(c3c2)CCCCCC4)cc1C	AC50	[1]	25.1 µM [falling, single point]
